The supplement of paper PMC7877785
± gives the uncertainty stated by the source. Many of these values have a large error.

Assay: self-splicing fitness, log relative to wild type (ln ratio); higher = more splicing; Tetrahymena group I intron in knt gene, E. coli kanamycin selection, DiMSum; sequences stand for … in CUCUCU…GGAGGGAAAAGUUAUCAGGCAUGCACCUGGUAGCUAGUCUUUAAACCAAUAGAUUGCAUCGGUUUAAAAGGCAAGACCGUCAAAUUGCGGGAAAGGGGUCAACAGCCGUUCAGUACCAAGUCUCAGGGGAAACUUUGAGAUGGCCUUGCAAAGGGUAUGGUAAUAAGCUGACGGACAUGGUCCUAACCACGCAGCCAAGUCCUAAGUCAACAGAUCUUCUGUUGAUAUGGAUGCAGUUCACAGACUAAAUGUCGGUCGGGGAAGAUGUAUUCUUCUCAUAAGAUAUAGUCGGACCUCUCCUUAAUGGGAGCUAGCGGAUGAAGUGAUGCAACACUGGAGCCGCUGGGAACUAAUUUGUAUGCGAAAGUAUAUUGAUUAGUUUUGGAGUACUCGUGGUCG
Procedure, shortened: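 Colonies from six replicate transformations of E. coli BL21(DE3) were pooled and amplicon-sequenced on an Illumina HiSeq 2500. The library placed an intron with all eight P1ex-region nucleotides randomised inside the knt kanamycin-resistance gene on pET-22b(+), and cells grew overnight at 37°C or 30°C on LB agar with or without 25 μg/mL kanamycin (plus 100 μg/mL carbenicillin, 50 μM IPTG, 0.2% rhamnose). Fitness is the DiMSum error-weighted combination of wild-type-normalised replicate fold changes, kanamycin versus none.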

CUGAAGCAAUAUUACGGGUC
self-splicing fitness (ln) (37 °C): -3.54 ± 0.73

GAGGAGCAAUAUUACGGCCU
self-splicing fitness (ln) (37 °C): -0.824 ± 0.56

GUAUAGCAAUAUUACGCAGU
self-splicing fitness (ln) (30 °C): -3.27 ± 0.76

CAGGAGCAAUAUUACGAAGA
self-splicing fitness (ln) (37 °C): -2.22 ± 0.65

AUCGAGCAAUAUUACGGCCA
self-splicing fitness (ln) (30 °C): -1.35 ± 0.41 | self-splicing fitness (ln) (37 °C): -1.47 ± 0.37

UAUCAGCAAUAUUACGGUGG
self-splicing fitness (ln) (30 °C): -1.2 ± 0.077 | self-splicing fitness (ln) (37 °C): -0.377 ± 0.088

GGGAAGCAAUAUUACGGAUA
self-splicing fitness (ln) (30 °C): -2.17 ± 0.65

GGAAAGCAAUAUUACGCCAC
self-splicing fitness (ln) (37 °C): -2.01 ± 0.57

CUGUAGCAAUAUUACGAGCA
self-splicing fitness (ln) (30 °C): -3.13 ± 0.54

CAUAAGCAAUAUUACGCAUA
self-splicing fitness (ln) (30 °C): -2.48 ± 0.18 | self-splicing fitness (ln) (37 °C): -1.71 ± 0.24

CCAGAGCAAUAUUACGCACA
self-splicing fitness (ln) (30 °C): -3.85 ± 0.74 | self-splicing fitness (ln) (37 °C): -0.693 ± 1.4

CUAUAGCAAUAUUACGUCUU
self-splicing fitness (ln) (30 °C): -4.3 ± 0.32 | self-splicing fitness (ln) (37 °C): -2.76 ± 0.23

UCGGAGCAAUAUUACGGCAC
self-splicing fitness (ln) (30 °C): -3.89 ± 1

AACGAGCAAUAUUACGAGCC
self-splicing fitness (ln) (30 °C): -3.68 ± 0.6 | self-splicing fitness (ln) (37 °C): -1.92 ± 0.64

UAGAAGCAAUAUUACGGGCC
self-splicing fitness (ln) (37 °C): -1.9 ± 0.31

UGCGAGCAAUAUUACGUGCU
self-splicing fitness (ln) (30 °C): -2.67 ± 0.62

UGAGAGCAAUAUUACGGUCC
self-splicing fitness (ln) (30 °C): -3.09 ± 0.79

CUGUAGCAAUAUUACGAAAC
self-splicing fitness (ln) (37 °C): -3.74 ± 1

CUAUAGCAAUAUUACGCAAA
self-splicing fitness (ln) (30 °C): -2.52 ± 0.57 | self-splicing fitness (ln) (37 °C): -2.41 ± 0.76

GUGUAGCAAUAUUACGGAGA
self-splicing fitness (ln) (30 °C): -4.16 ± 1

CUGGAGCAAUAUUACGGAGG
self-splicing fitness (ln) (30 °C): -3.27 ± 1.1

GUUGAGCAAUAUUACGAUUC
self-splicing fitness (ln) (30 °C): -0.993 ± 0.12 | self-splicing fitness (ln) (37 °C): 0.00124 ± 0.2

GUUGAGCAAUAUUACGGUGA
self-splicing fitness (ln) (30 °C): -3.5 ± 0.61

AUAGAGCAAUAUUACGUAAA
self-splicing fitness (ln) (30 °C): -4.12 ± 0.6

CCUGAGCAAUAUUACGUGGC
self-splicing fitness (ln) (37 °C): -3.66 ± 0.52

UGAGAGCAAUAUUACGUUAA
self-splicing fitness (ln) (30 °C): -3.42 ± 0.54 | self-splicing fitness (ln) (37 °C): -2.46 ± 0.3

UUAGAGCAAUAUUACGAAAG
self-splicing fitness (ln) (30 °C): -2.9 ± 0.4 | self-splicing fitness (ln) (37 °C): -0.494 ± 0.35

GGGCAGCAAUAUUACGGCCG
self-splicing fitness (ln) (30 °C): -1.5 ± 0.16 | self-splicing fitness (ln) (37 °C): -1.59 ± 0.26

UGAGAGCAAUAUUACGCGGG
self-splicing fitness (ln) (30 °C): -3.19 ± 1.2 | self-splicing fitness (ln) (37 °C): -1.98 ± 0.66

GCCCAGCAAUAUUACGUAUC
self-splicing fitness (ln) (30 °C): -0.98 ± 0.08 | self-splicing fitness (ln) (37 °C): -1.18 ± 0.081

GGUGAGCAAUAUUACGCUUC
self-splicing fitness (ln) (30 °C): -2.77 ± 0.54

CCUCAGCAAUAUUACGCACC
self-splicing fitness (ln) (30 °C): -3.7 ± 0.52 | self-splicing fitness (ln) (37 °C): -3.7 ± 0.73

UGAAAGCAAUAUUACGAGAC
self-splicing fitness (ln) (30 °C): -0.86 ± 0.82

GCGUAGCAAUAUUACGCCAA
self-splicing fitness (ln) (30 °C): -1.44 ± 0.57

UCGGAGCAAUAUUACGCCUA
self-splicing fitness (ln) (30 °C): -2.08 ± 0.8 | self-splicing fitness (ln) (37 °C): -0.974 ± 0.59

UUUUAGCAAUAUUACGAGAC
self-splicing fitness (ln) (30 °C): -3.86 ± 0.61 | self-splicing fitness (ln) (37 °C): -0.692 ± 0.55

CGAGAGCAAUAUUACGAUAU
self-splicing fitness (ln) (37 °C): -1.54 ± 0.6

UCUGAGCAAUAUUACGGACA
self-splicing fitness (ln) (30 °C): -2.91 ± 0.76 | self-splicing fitness (ln) (37 °C): -2.63 ± 0.76

CUAUAGCAAUAUUACGCGUA
self-splicing fitness (ln) (30 °C): -1.43 ± 0.31 | self-splicing fitness (ln) (37 °C): -2.86 ± 0.31

UGUCAGCAAUAUUACGUCUA
self-splicing fitness (ln) (30 °C): 0.314 ± 0.096 | self-splicing fitness (ln) (37 °C): -0.489 ± 0.1

GGUCAGCAAUAUUACGAGCC
self-splicing fitness (ln) (37 °C): -2.03 ± 1.1

CUUGAGCAAUAUUACGCAAA
self-splicing fitness (ln) (37 °C): -1.78 ± 0.53

UCGCAGCAAUAUUACGAUAC
self-splicing fitness (ln) (30 °C): -3.52 ± 0.46 | self-splicing fitness (ln) (37 °C): -2.76 ± 0.34

CGUUAGCAAUAUUACGGCGC
self-splicing fitness (ln) (30 °C): -3.31 ± 1

GCGCAGCAAUAUUACGCCAA
self-splicing fitness (ln) (30 °C): -0.455 ± 0.91

CUGAAGCAAUAUUACGCUAA
self-splicing fitness (ln) (30 °C): -5.08 ± 1

CCUGAGCAAUAUUACGAGCU
self-splicing fitness (ln) (30 °C): -2.86 ± 0.58
